Our source for the AC50 values is PubChem BioAssay AID1487 (National Center for Advancing Translational Sciences (NCATS), 2009).

This experiment in a line: qHTS Assay for Modulators of Lamin A Splicing. The settings on record: HeLa LMNA splicing GFP/RFP minigene ratio, 48 h. The method, boiled down:
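Read-out is the ratio of GFP to DsRed2 object intensity, acquired by 488 nm laser-scanning cytometry on HeLa lamin A-EGFP minigene reporter cells. Compound incubation 48 hrs at 37 °C in Opti-MEM with 2% FBS; DMSO 0.5% final.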
On the technique in general: Quantitative high-throughput screening tests each substance at several concentrations.

The mark [1] stands for this setting: measured here: GFP splicing reporter channel.
The mark [2] stands for this setting: measured here: RFP viability control channel.

Molecules are shown by their SMILES. The list shows a part of the results. These are further read-outs of the screen, such as a control signal, another cell line or another target. No call is given for them. The list favours compounds with an active or inconclusive main result. Words in brackets tell the shape of the fitted curve; partial curves, single points and poor fits give uncertain potencies.

The term AC50 denotes the concentration giving half of the maximal activity seen. In the case of `COc1ccc(-n2nnnc2SCC(=O)Nc2ccc3c(c2)OCCO3)c(OC)c1`, the AC50 reads like this: under setting [1], 5.62 µM [rising, partial curve]; under setting [2], 14.1 µM [rising, partial curve].
`COc1ccccc1NS(=O)(=O)c1cccc(NC(=O)Cc2cccs2)c1`: the AC50 under setting [2] is 35.5 µM [rising, partial curve, poor fit].
The same measure, in the same setting: as for `Cc1nn(Cc2ccc(Cl)cc2Cl)c(C)c1NC(=O)c1sc2ccccc2c1Cl`, the figure is 35.5 µM [falling, single point]; as for `N=C(c1ccc([N+](=O)[O-])cc1)N1CCCCCC1`, 1 µM [falling, full curve].
For `COc1ccc2[nH]cc(CCNc3nc(-c4c(C)noc4C)nc4ccccc34)c2c1`, the AC50 was 22.4 µM [falling, single point] under setting [1] and 25.1 µM [falling, single point] under setting [2].
Regarding `O=c1c(C/C=C/c2ccccc2)c(O)ccn1Cc1ccc(Cl)cc1Cl`, the AC50 reads like this: under setting [1], 3.55 µM [rising, full curve, poor fit]; under setting [2], 12.6 µM [rising, partial curve].
Consider `CCN(CC)S(=O)(=O)c1ccc(/C=C/C(=O)Nc2cccc(F)c2)cc1`, for which the AC50 is 4.47 µM [rising, partial curve] under setting [1] and 8.91 µM [rising, partial curve] under setting [2].
As to `O=C(NC1CCCCC1)N(Cc1ccc(F)cc1)Cc1nc2ccccc2c(=O)[nH]1`, under setting [2], the AC50 is 0.1 µM [rising, full curve, poor fit].
Still for that read-out and setting: as for `CC(C)(C)n1nnnc1C(c1cccnc1)N1CCN(c2cccc(C(F)(F)F)c2)CC1` (configuration not stated), the figure is 35.5 µM [rising, single point]; as for `Fc1ccccc1C1c2[nH]c3ccccc3c2CCN1Cc1ccoc1` (configuration not stated), 35.5 µM [rising, single point].
Take `O=C(/C=C/c1ccc(Br)cc1)c1ccc(NC2=NCCCS2)cc1`: the AC50 is 5.01 µM [rising, single point] under setting [1] and 5.62 µM [rising, single point] under setting [2].
`N/C(=N\OS(=O)(=O)c1ccc2ccccc2c1)c1cccnc1`: the AC50 under setting [1] was 25.1 µM [falling, single point] and the AC50 under setting [2] is 35.5 µM [falling, partial curve, poor fit].
In the case of `O=C1c2ccccc2-c2onc3ccc(NCc4ccco4)c1c23`, the AC50 under setting [2] is 12.6 µM [rising, single point].
In the case of `CCCCn1cc(S(=O)(=O)c2ccc(CC)cc2)c(=O)c2cc(F)c(N3CCOCC3)cc21`, the AC50 is, setting by setting: under setting [1], 10 µM [falling, partial curve]; under setting [2], 3.98 µM [falling, partial curve, poor fit].
Consider `COc1cccc(N2CCN(C(=O)c3ccc4nc(N5CCCCC5)sc4c3)CC2)c1`, for which the AC50 under setting [1] was 11.2 µM [rising, single point].
For the molecule `COc1ccccc1OCC(=O)OCC(=O)NCCN1C(=O)CSC1=O`, under setting [1], the AC50 was 35.5 µM [falling, single point].
As for `O=C(CNC1CCCC1)Nc1ccc(N2CCCCCC2)cc1`, the AC50 is 0.00316 µM [falling, full curve, poor fit] under setting [1] and 0.0282 µM [falling, full curve] under setting [2].
Regarding `CC(Nc1nc(N2CCN(CCO)CC2)nc2ccccc12)c1ccccc1` (configuration not stated), under setting [2], the AC50 is 0.158 µM [rising, full curve, poor fit].
The same measure, in the same setting: as for `CCOc1ccccc1N1CC(O)=C(c2nc3ccccc3s2)C1=N`, the figure is 5.62 µM [rising, single point].
In the case of `COc1ccc(CCNC(=O)CC2SC(=NCc3ccccc3OC)NC2=O)cc1` (configuration not stated), the AC50 is, setting by setting: under setting [1], 5.62 µM [rising, partial curve]; under setting [2], 0.1 µM [rising, full curve, poor fit].
As to `CN(C)c1ccc(/C=C/c2cc[n+](C)cc2)cc1`, the AC50 by setting is: under setting [1], 35.5 µM [falling, single point]; under setting [2], 3.16 µM [rising, single point].
Take `Cc1ncsc1C(=O)N1N=C2/C(=C/c3ccccc3)CCCC2C1c1ccccc1` (configuration not stated): the AC50 reads like this: under setting [1], 35.5 µM [falling, single point]; under setting [2], 35.5 µM [falling, single point].
Consider `Cc1ccc(OCCOCCn2cnc3ccccc3c2=O)c([N+](=O)[O-])c1`, for which, under setting [2], the AC50 is 17.8 µM [rising, single point].
In the case of `CC1CCCCC1NC(=O)CN1CCN(Cc2ccccc2Cl)C1=O` (configuration not stated), the AC50 was 15.8 µM [rising, single point] under setting [1] and 35.5 µM [rising, single point] under setting [2].
With `Cc1cc(C)cc(NS(=O)(=O)c2ccc(NC(=S)NC(=O)c3cccs3)cc2)c1`, the AC50 is, setting by setting: under setting [1], 3.98 µM [rising, partial curve, poor fit]; under setting [2], 12.6 µM [rising, partial curve].
Regarding `c1csc(C(c2nnnn2C2CCCC2)N2CCCC3(CCCCC3)C2)c1` (configuration not stated), the AC50 under setting [2] is 31.6 µM [rising, single point].
On the same count and under the same terms, as for `CCOc1ccc(NCc2nnc(SCc3ccc(Cl)cc3)n2-c2ccccc2)cc1`, the figure is 22.4 µM [rising, single point]; as for `CCOC(=O)/C(C#N)=C/Nc1cc(C(C)(C)C)sc1C(C)=O`, 5.62 µM [rising, single point].
On the same count and under the same terms, the value for `CCCCN1CCC(n2c(=O)[nH]c3ccccc32)CC1` was 0.000794 µM [falling, full curve, poor fit].
As to `C=CCNC(=O)/C(C#N)=C/c1c(N(Cc2ccccc2)Cc2ccccc2)nc2ccccn2c1=O`, the AC50 under setting [1] was 31.6 µM [rising, single point] and the AC50 under setting [2] was 31.6 µM [rising, single point].
Turning to `CCc1c(C)sc2c1CCN(C(=O)Nc1cc(Cl)c(OC)cc1OC)C2c1ccccc1` (configuration not stated), under setting [2], the AC50 was 0.0398 µM [rising, full curve, poor fit].
As to `COc1cccc2c1Oc1ncccc1N(C(=O)CCC(=O)NC(C)C)C2`, the AC50 by setting is: under setting [1], 0.0355 µM [falling, full curve, poor fit]; under setting [2], 4.47 µM [falling, full curve, poor fit].
For the molecule `CCCCn1c(O)c(N=Nc2ccccn2)c2ccccc21`, under setting [2], the AC50 is 11.2 µM [rising, partial curve, poor fit].
On to `CC(C)NC(=O)c1cc2cc([N+](=O)[O-])ccc2s1`, for which the half-maximal activity concentration (AC50) runs as follows: under setting [1], 12.6 µM [rising, partial curve]; under setting [2], 14.1 µM [rising, partial curve].
Turning to `COc1ccc(C2CC3(CC(C)(C)NC(=S)N3)Oc3cc(O)cc(C)c32)cc1` (configuration not stated), under setting [2], the AC50 was 20 µM [rising, partial curve, poor fit].
With `CCCS(=O)(=O)N1CCC(C(=O)c2cccc(C(F)(F)F)c2)CC1`, under setting [2], the AC50 is 35.5 µM [rising, single point].
Still for that read-out and setting: as for `CCC(=O)Nc1ccccc1C(=O)OCC(=O)c1ccc2ccccc2c1`, the figure is 35.5 µM [rising, single point].
Regarding `O=C(CN1CCN(c2ccc(F)cc2)CC1)Nc1cccc(C(F)(F)F)c1`, the AC50 was 14.1 µM [rising, single point] under setting [1] and 22.4 µM [rising, single point] under setting [2].
For the molecule `COc1ccc(N(C)C(=S)Oc2ccc(C(=O)Nc3ccccc3)cc2)cc1`, under setting [2], the AC50 is 31.6 µM [rising, single point].
Still for that read-out and setting: as for `CN(C)S(=O)(=O)c1cccc(N=C2NN=C(c3ccccc3)CS2)c1`, the figure is 10 µM [rising, partial curve].
Same read-out and setting: as for `COc1ccc(-c2csc(CCn3nc(C)cc3C)n2)cc1`, the figure is 35.5 µM [rising, single point].
`NS(=O)(=O)c1ccc(CCNC(=O)C(=O)NCC2OCCN2C(=O)c2ccc3c(c2)OCO3)cc1` (configuration not stated): the AC50 under setting [1] was 0.0631 µM [rising, full curve, poor fit].
Take `Cc1ccc(NC(=O)CN2CCCN(S(=O)(=O)c3ccc(Br)s3)CC2)cc1`: the AC50 runs as follows: under setting [1], 12.6 µM [rising, single point]; under setting [2], 22.4 µM [rising, single point].
`Cc1cc(C)cc(NC(=O)Nc2ccccc2OCc2cc(=O)n3ccccc3n2)c1`: the AC50 reads like this: under setting [1], 28.2 µM [falling, single point]; under setting [2], 35.5 µM [falling, single point].
For the molecule `COCCN1C(=O)/C(=C/c2cc3c(cc2Br)OCO3)NC1=S`, under setting [2], the AC50 is 28.2 µM [falling, partial curve].
In the case of `Cc1nc(CS(=O)(=O)c2ccc(Cl)cc2)cc(Sc2ccc(Cl)cc2)n1`, the AC50 under setting [2] is 14.1 µM [rising, partial curve, poor fit].
As to `CCC1C(=O)NCCN1Cc1nc(-c2ccc(C)s2)oc1C` (configuration not stated), under setting [2], the AC50 was 0.00316 µM [falling, full curve, poor fit].
Consider `CCOc1ccccc1NC(=O)c1c(NCc2cccs2)sc2c1CCCCC2`, for which, under setting [1], the AC50 is 20 µM [falling, single point].
As to `COC(=O)c1ccc(COc2cccc(C)c2C)cc1`, the AC50 is 0.01 µM [rising, full curve, poor fit] under setting [1] and 0.01 µM [rising, full curve, poor fit] under setting [2].
Take `CCN(CC1COc2ccccc2O1)C(=S)NC1CC2CCC1C2` (configuration not stated): under setting [2], the AC50 is 8.91 µM [rising, partial curve].
On to `COc1ccc(-c2csc(Nc3ccc(C)cn3)n2)cc1OC`, for which, under setting [1], the AC50 was 12.6 µM [falling, partial curve, poor fit].
Regarding `COc1cccc(CNc2ccc(S(=O)(=O)Nc3nccs3)cc2)c1O`, the AC50 under setting [1] is 12.6 µM [rising, single point] and the AC50 under setting [2] was 17.8 µM [rising, single point].
For `O=C(Nc1ccc2c(c1)C(=O)OC2)Nc1cccc2ccccc12`, the AC50 was 4.47 µM [falling, partial curve, poor fit] under setting [1] and 2 µM [falling, full curve, poor fit] under setting [2].
As to `Clc1ccc(CSc2cc3c(nn2)-c2ccccc2CC3)cc1`, the AC50 runs as follows: under setting [1], 14.1 µM [rising, single point]; under setting [2], 17.8 µM [rising, single point].
